# Test results published in the supplement of paper PMC8728848.
# The list shows a part of the results.
# B1: Latrophilin-3 (Homo sapiens), Q9HAR2 (protein)
# chain: MWPSQLLIFMMLLAPIIHAFSRAPIPMAVVRRELSCESYPIELRCPGTDVIMIESANYGRTDDKICDSDPAQMENIRCYLPDAYKIMSQRCNNRTQCAVVAGPDVFPDPCPGTYKYLEVQYECVPYKVEQKVFLCPGLLKGVYQSEHLFESDHQSGAWCKDPLQASDKIYYMPWTPYRTDTLTEYSSKDDFIAGRPTTTYKLPHRVDGTGFVVYDGALFFNKERTRNIVKFDLRTRIKSGEAIIANANYHDTSPYRWGGKSDIDLAVDENGLWVIYATEQNNGKIVISQLNPYTLRIEGTWDTAYDKRSASNAFMICGILYVVKSVYEDDDNEATGNKIDYIYNTDQSKDSLVDVPFPNSYQYIAAVDYNPRDNLLYVWNNYHVVKYSLDFGPLDSRSGQAHHGQVSYISPPIHLDSELERPSVKDISTTGPLGMGSTTTSTTLRTTTLSPGRSTTPSVSGRRNRSTSTPSPAVEVLDDMTTHLPSASSQIPALEESCEAVEAREIMWFKTRQGQIAKQPCPAGTIGVSTYLCLAPDGIWDPQGPDLSNCSSPWVNHITQKLKSGETAANIARELAEQTRNHLNAGDITYSVRAMDQLVGLLDVQLRNLTPGGKDSAARSLNKAMVETVNNLLQPQALNAWRDLTTSDQLRAATMLLHTVEESAFVLADNLLKTDIVRENTDNIKLEVARLSTEGNLEDLKFPENMGHGSTIQLSANTLKQNGRNGEIRVAFVLYNNLGPYLSTENASMKLGTEALSTNHSVIVNSPVITAAINKEFSNKVYLADPVVFTVKHIKQSEENFNPNCSFWSYSKRTMTGYWSTQGCRLLTTNKTHTTCSCNHLTNFAVLMAHVEVKHSDAVHDLLLDVITWVGILLSLVCLLICIFTFCFFRGLQSDRNTIHKNLCISLFVAELLFLIGINRTDQPIACAVFAALLHFFFLAAFTWMFLEGVQLYIMLVEVFESEHSRRKYFYLVGYGMPALIVAVSAAVDYRSYGTDKVCWLRLDTYFIWSFIGPATLIIMLNVIFLGIALYKMFHHTAILKPESGCLDNIKSWVIGAIALLCLLGLTWAFGLMYINESTVIMAYLFTIFNSLQGMFIFIFHCVLQKKVRKEYGKCLRTHCCSGKSTESSIGSGKTSGSRTPGRYSTGSQSRIRRMWNDTVRKQSESSFITGDINSSASLNREGLLNNARDTSVMDTLPLNGNHGNSYSIASGEYLSNCVQIIDRGYNHNETALEKKILKELTSNYIPSYLNNHERSSEQNRNLMNKLVNNLGSGREDDAIVLDDATSFNHEESLGLELIHEESDAPLLPPRVYSTENHQPHHYTRRRIPQDHSESFFPLLTNEHTEDLQSPHRDSLYTSMPTLAGVAATESVTTSTQTEPPPAKCGDAEDVYYKSMPNLGSRNHVHQLHTYYQLGRGSSDGFIVPPNKDGTPPEGSSKGPAHLVTSL
# Assays:
# Experiment in all cases: glycan array binding signal (z-score within array); higher = stronger binding
# Conditions in all cases: glycan notation: IUPAC condensed, linker removed
# [1] = target: Gal(b1-4)GlcNAc(b1-2)[Gal(b1-4)GlcNAc(b1-4)]Man(a1-3)[GlcNAc(b1-4)][Gal(b1-4)GlcNAc(b1-2)Man(a1-6)]Man(b1-4)GlcNAc(b1-4)GlcNAc
# Procedure, shortened: (§1)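 Glycan array binding is given as a within-array Z-score, which can be read as non-binding when negative. The arrays, 3228 of them, came from the Consortium for Functional Glycomics database and were retained only where the protein sequence was available. Z-scores were averaged across arrays of the same protein sequence at different concentrations or buffers and across linkers.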
# [2] = target: Gal(b1-4)GlcNAc(b1-2)[Gal(b1-4)GlcNAc(b1-4)]Man(a1-3)[GlcNAc(b1-4)][Gal(b1-4)GlcNAc(b1-2)[Gal(b1-4)GlcNAc(b1-6)]Man(a1-6)]Man(b1-4)GlcNAc(b1-4)GlcNAc
# Procedure, shortened: as §1
# [3] = target: Gal(b1-4)GlcNAc(b1-2)[Gal(b1-4)GlcNAc(b1-4)]Man(a1-3)[GlcNAc(b1-4)][Gal(b1-4)GlcNAc(b1-2)[Gal(b1-4)GlcNAc(b1-6)]Man(a1-6)]Man(b1-4)GlcNAc(b1-4)[Fuc(a1-6)]GlcNAc
# Procedure, shortened: as §1
# [4] = target: Gal(b1-4)GlcNAc(b1-2)[Gal(b1-4)GlcNAc(b1-6)]Man(a1-6)[Gal(b1-4)GlcNAc(b1-2)Man(a1-3)]Man(b1-4)GlcNAc(b1-4)GlcNAc
# Procedure, shortened: as §1
# [5] = target: Gal(b1-4)GlcNAc(b1-2)[Gal(b1-4)GlcNAc(b1-6)]Man(a1-6)[Gal(b1-4)GlcNAc(b1-2)Man(a1-3)]Man(b1-4)GlcNAc(b1-4)[Fuc(a1-6)]GlcNAc
# Procedure, shortened: as §1
# [6] = target: Gal(b1-4)GlcNAc(b1-2)[Gal(b1-4)GlcNAc(b1-6)]Man(a1-6)[GlcNAc(b1-4)][Gal(b1-4)GlcNAc(b1-2)Man(a1-3)]Man(b1-4)GlcNAc(b1-4)GlcNAc
# Procedure, shortened: as §1
# [7] = target: Gal(b1-4)GlcNAc(b1-3)Gal(b1-3)GlcNAc
# Procedure, shortened: as §1
# [8] = target: Gal(b1-4)GlcNAc(b1-3)Gal(b1-4)Glc
# Procedure, shortened: as §1
# [9] = target: Gal(b1-4)GlcNAc(b1-3)Gal(b1-4)GlcNAc
# Procedure, shortened: as §1
# [10] = target: Gal(b1-4)GlcNAc(b1-3)Gal(b1-4)GlcNAc(b1-3)Gal(b1-4)GlcNAc
# Procedure, shortened: as §1
# [11] = target: Gal(b1-4)GlcNAc(b1-3)Gal(b1-4)[Fuc(a1-3)GlcNAc(b1-6)]Gal(b1-4)Glc
# Procedure, shortened: as §1
# [12] = target: Gal(b1-4)GlcNAc(b1-3)Gal(b1-4)[Fuc(a1-3)]GlcNAc(b1-3)Gal(b1-4)[Fuc(a1-3)]GlcNAc
# Procedure, shortened: as §1
# [13] = target: Gal(b1-4)GlcNAc(b1-3)GalNAc
# Procedure, shortened: as §1
# [14] = target: Gal(b1-4)GlcNAc(b1-3)[Gal(b1-4)GlcNAc(b1-6)]Gal(b1-4)GlcNAc
# Procedure, shortened: as §1
# [15] = target: Gal(b1-4)GlcNAc(b1-3)[Gal(b1-4)GlcNAc(b1-6)]GalNAc
# Procedure, shortened: as §1
# [16] = target: Gal(b1-4)GlcNAc(b1-3)[GlcNAc(b1-6)]Gal(b1-4)GlcNAc
# Procedure, shortened: as §1
# [17] = target: Gal(b1-4)GlcNAc(b1-6)Gal(b1-4)GlcNAc
# Procedure, shortened: as §1
# [18] = target: Gal(b1-4)GlcNAc(b1-6)GalNAc
# Procedure, shortened: as §1
# [19] = target: Gal(b1-4)GlcNAc(b1-6)[Gal(b1-3)]GalNAc
# Procedure, shortened: as §1
# Gal(b1-4)GlcNAc6P = target: Gal(b1-4)GlcNAc6P
# Procedure, shortened: as §1
# Gal(b1-6)Gal = target: Gal(b1-6)Gal
# Procedure, shortened: as §1
# Gal3S(b1-3)GalNAc = target: Gal3S(b1-3)GalNAc
# Procedure, shortened: as §1
# Gal3S(b1-3)GlcNAc = target: Gal3S(b1-3)GlcNAc
# Procedure, shortened: as §1
# [20] = target: Gal3S(b1-3)[Fuc(a1-4)]GlcNAc
# Procedure, shortened: as §1
# Gal3S(b1-4)Glc = target: Gal3S(b1-4)Glc
# Procedure, shortened: as §1
# Gal3S(b1-4)Glc6S = target: Gal3S(b1-4)Glc6S
# Procedure, shortened: as §1
# Gal3S(b1-4)GlcNAc = target: Gal3S(b1-4)GlcNAc
# Procedure, shortened: as §1
# Gal3S(b1-4)GlcNAc6S = target: Gal3S(b1-4)GlcNAc6S
# Procedure, shortened: as §1
# [21] = target: Gal3S(b1-4)[Fuc(a1-3)]Glc
# Procedure, shortened: as §1
# [22] = target: Gal3S(b1-4)[Fuc(a1-3)]Glc6S
# Procedure, shortened: as §1
# Gal3S4S(b1-4)GlcNAc = target: Gal3S4S(b1-4)GlcNAc
# Procedure, shortened: as §1
# Gal3S6S(b1-4)GlcNAc = target: Gal3S6S(b1-4)GlcNAc
# Procedure, shortened: as §1
# Gal3S6S(b1-4)GlcNAc6S = target: Gal3S6S(b1-4)GlcNAc6S
# Procedure, shortened: as §1
# Gal4S(b1-4)GlcNAc = target: Gal4S(b1-4)GlcNAc
# Procedure, shortened: as §1
# Gal4S6S(b1-4)GlcNAc = target: Gal4S6S(b1-4)GlcNAc
# Procedure, shortened: as §1
# Gal6P(b1-4)GlcNAc = target: Gal6P(b1-4)GlcNAc
# Procedure, shortened: as §1
# Gal6S(b1-3)GlcNAc = target: Gal6S(b1-3)GlcNAc
# Procedure, shortened: as §1
# Gal6S(b1-3)GlcNAc6S = target: Gal6S(b1-3)GlcNAc6S
# Procedure, shortened: as §1
# Gal6S(b1-4)Glc = target: Gal6S(b1-4)Glc
# Procedure, shortened: as §1
# Gal6S(b1-4)Glc6S = target: Gal6S(b1-4)Glc6S
# Procedure, shortened: as §1
# Gal6S(b1-4)GlcNAc = target: Gal6S(b1-4)GlcNAc
# Procedure, shortened: as §1
# Gal6S(b1-4)GlcNAc6S = target: Gal6S(b1-4)GlcNAc6S
# Procedure, shortened: as §1
# GalNAc(a1-3)Gal = target: GalNAc(a1-3)Gal
# Procedure, shortened: as §1
# GalNAc(a1-3)GalNAc = target: GalNAc(a1-3)GalNAc
# Procedure, shortened: as §1
# [23] = target: GalNAc(a1-3)GalNAc(b1-3)Gal(a1-4)Gal(b1-4)Glc
# Procedure, shortened: as §1
binder,measurement,setting,value
B1,glycan array binding signal (z-score),[1],1.15
same,glycan array binding signal (z-score),[2],-1.02
same,glycan array binding signal (z-score),[3],-0.338
same,glycan array binding signal (z-score),[4],0.342
same,glycan array binding signal (z-score),[5],-0.651
same,glycan array binding signal (z-score),[6],0.561
same,glycan array binding signal (z-score),[7],-1.51
same,glycan array binding signal (z-score),[8],-0.24
same,glycan array binding signal (z-score),[9],-0.111
same,glycan array binding signal (z-score),[10],-0.064
same,glycan array binding signal (z-score),[11],-0.749
same,glycan array binding signal (z-score),[12],-0.225
same,glycan array binding signal (z-score),[13],0.339
same,glycan array binding signal (z-score),[14],3.02
same,glycan array binding signal (z-score),[15],-0.21
same,glycan array binding signal (z-score),[16],0.968
same,glycan array binding signal (z-score),[17],-0.576
same,glycan array binding signal (z-score),[18],-0.681
same,glycan array binding signal (z-score),[19],-0.627
same,glycan array binding signal (z-score),Gal(b1-4)GlcNAc6P,-0.196
same,glycan array binding signal (z-score),Gal(b1-6)Gal,-0.409
same,glycan array binding signal (z-score),Gal3S(b1-3)GalNAc,-0.522
same,glycan array binding signal (z-score),Gal3S(b1-3)GlcNAc,-0.3
same,glycan array binding signal (z-score),[20],0.473
same,glycan array binding signal (z-score),Gal3S(b1-4)Glc,0.224
same,glycan array binding signal (z-score),Gal3S(b1-4)Glc6S,0.343
same,glycan array binding signal (z-score),Gal3S(b1-4)GlcNAc,-0.493
same,glycan array binding signal (z-score),Gal3S(b1-4)GlcNAc6S,0.227
same,glycan array binding signal (z-score),[21],-0.273
same,glycan array binding signal (z-score),[22],-0.622
same,glycan array binding signal (z-score),Gal3S4S(b1-4)GlcNAc,1.34
same,glycan array binding signal (z-score),Gal3S6S(b1-4)GlcNAc,-0.23
same,glycan array binding signal (z-score),Gal3S6S(b1-4)GlcNAc6S,-0.592
same,glycan array binding signal (z-score),Gal4S(b1-4)GlcNAc,-1.01
same,glycan array binding signal (z-score),Gal4S6S(b1-4)GlcNAc,-0.765
same,glycan array binding signal (z-score),Gal6P(b1-4)GlcNAc,1.03
same,glycan array binding signal (z-score),Gal6S(b1-3)GlcNAc,0.183
same,glycan array binding signal (z-score),Gal6S(b1-3)GlcNAc6S,-0.155
same,glycan array binding signal (z-score),Gal6S(b1-4)Glc,-0.961
same,glycan array binding signal (z-score),Gal6S(b1-4)Glc6S,-0.249
same,glycan array binding signal (z-score),Gal6S(b1-4)GlcNAc,-0.387
same,glycan array binding signal (z-score),Gal6S(b1-4)GlcNAc6S,0.338
same,glycan array binding signal (z-score),GalNAc(a1-3)Gal,-0.937
same,glycan array binding signal (z-score),GalNAc(a1-3)GalNAc,-0.675
same,glycan array binding signal (z-score),[23],-1.16

# Given bar-delimited: part of the list above.
binder | measurement | setting | value
B1 | glycan array binding signal (z-score) | [14] | 3.02
same | glycan array binding signal (z-score) | [15] | -0.21
